# Values quoted from earlier work in US20240327361A1, “RADIOLABELED COMPOSITIONS AND METHODS OF USE THEREOF” (The Research Foundation for the State University of New York, priority 2021, published 2024).
# At least one structure is not confirmed: it was looked up by name or label, or the drawing left a doubt.
# Details: literature reports on earlier tracers; cited from earlier work
smiles,measurement,value
O=C(CCCCCCC(=O)Nc1ccc(CC[18F])cc1)NO [^18F-FESAHA],blood-brain barrier (BBB) permeability,poor
